# Results published in PubChem BioAssay AID504834 (National Center for Advancing Translational Sciences (NCATS), 2011).
# Several values for one entry are separate records, joined by “and”; a condition that tells them apart may be missing. Equal values may be shown once. In all, about 320,000 compounds went through this assay and about 22,000 (6.9%) were called active. The inconclusive results got no clear call from the source; some entries with a clear call stand among them for comparison. Calls follow the shape of the dose curve; as a rule, active = well fitted inhibition curve with a large enough effect; inconclusive = small, poorly fitted or top-dose-only effect, or another doubt; inactive = no such curve, though single readings can be large or run the other way. A potency beside an inconclusive call is a rough fit, not a confirmed value.
# Assay: Primary qHTS for delayed death inhibitors of the malarial parasite plastid, 96 hour incubation
# Settings: P. falciparum luciferase reporter growth; series mostly up to 28.7 µM
# Outline: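 Cell-based qHTS: luciferase-tagged P. falciparum in erythrocytes (2% hematocrit, 0.05% parasitemia final) incubated with compounds for 96 hours, 37 C, 5% CO2; luciferase detection reagent then added and luminescence measured.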
# Potency is read from the fitted curve at half-maximal effect.
row,Compound,Potency
1,Cc1c(Cl)c([N+](=O)[O-])nn1Cc1ccc(C(=O)N/N=C\c2ccccn2)o1,"inconclusive: 18.5 µM [inhibitor, single point]"
2,Clc1ccccc1OCCCCN1CCCCC1,"inconclusive: 18.5 µM [inhibitor, single point]"
3,COc1ccc(OC)c(S(=O)(=O)N2c3ccccc3CC2C)c1 (stereo not drawn),"inconclusive: 4.15 µM [inhibitor, single point]"
4,COc1ccc(C(=O)COC(=O)c2ccco2)cc1,inactive
5,CCOC(=O)CC(=O)Nc1nc2ccccc2s1,"inconclusive: 18.5 µM [inhibitor, single point]"
6,Cn1cc(Cl)cc(C(=O)Nc2ccccc2)c1=O,inactive
7,Cn1ncc(Cl)c1C(=O)Nc1ccncc1,"inconclusive: 18.5 µM [inhibitor, single point]"
8,CCOC(=O)/C(C#N)=C1\Nc2ccccc2N=C1N(CC(C)C)CC(C)C,inactive
9,CC(Oc1ccc(F)cc1)C(=O)Nc1ccc(N2CCOCC2)cc1N1CCOCC1 (stereo not drawn),"inconclusive: 16.5 µM [inhibitor, single point]"
10,COC(=O)c1c(C)[nH]c(C(=O)C(C)OC(=O)c2c(C)noc2C)c1C (stereo not drawn),active: 4.15 µM
11,CC(=O)N(CCCCN1C(=O)c2ccccc2C1=O)c1ccc(C)cc1,inactive
12,Cc1ccc(C=Nc2cccnc2N)cc1,inactive
13,O=C(NCCN1CCN(c2ccccc2)CC1)C1CCN(S(=O)(=O)c2cccc3nsnc23)CC1,inactive
14,Nc1c(C(=O)NC2CC2)c2nc3ccccc3nc2n1-c1ccc2c(c1)OCO2,"inconclusive: 9.28 µM [inhibitor, partial curve]"
15,COc1cccc(-n2c(C)c3c(OC)cccc(=O)c3c2C)c1,"inconclusive: 18.5 µM [inhibitor, single point]"
16,CS(=O)(=O)c1ccc2sc(NC(=O)c3cc4ccccc4o3)nc2c1,inactive
17,CN(C)Cc1c(O)ccc2c(=O)c(-c3ccccc3Cl)coc12,"inconclusive: 11.7 µM [inhibitor, partial curve]"
18,Cc1cccc(N2CC(C(=O)Nc3cccc(S(=O)(=O)N4CCCCC4)c3)CC2=O)c1C (stereo not drawn),"inconclusive: 10.4 µM [inhibitor, single point]"
19,CCOc1ccc(-c2nnn(CC(=O)NCc3ccc(OC)cc3)n2)cc1OCC,inactive
20,CCOC(=O)C(C)Oc1ccc(NC(=O)C(Cl)Cl)cc1 (stereo not drawn),inactive
21,CS(=O)(=O)c1ccc2nc(NC(=O)Nc3ccccc3F)sc2c1,inactive
22,O=C(NCc1ccccc1)N(Cc1cc2cc3c(cc2[nH]c1=O)OCCO3)CC1CCCO1 (stereo not drawn),active: 8.28 µM
23,O=C(c1cc(-c2cccs2)nc2ccccc12)N1CCN(S(=O)(=O)c2ccccc2)CC1,"inconclusive: 13.1 µM [inhibitor, partial curve, poor fit]"

row,Compound,Potency
1,Cc1cc(Nc2ccccc2)n(-c2ccc(C(=O)O)cc2)n1,inactive
2,CCCCC[C@H](O)/C=C/C1=C(CCCCCCC(=O)O)C(=O)CC1,"inconclusive: 18.5 µM [inhibitor, single point]"
3,CC(C)c1ccc(NC2CCCN(C(=O)c3ccc(N4CCOCC4)cc3)C2)cc1 (stereo not drawn),"inconclusive: 10.4 µM [inhibitor, single point]"
4,C[N+]1(C)CCOC(O)(c2ccc(-c3ccc(C4(O)C[N+](C)(C)CCO4)cc3)cc2)C1 (stereo not drawn),active: 5.86 µM
5,Cc1ccc(NC(=O)c2ccc3nc[nH]c3c2)cc1C,inactive
6,COc1ccc(-c2cc(C(=O)NCCN3CCOCC3)c3ccccc3n2)cc1OC,"inconclusive: 9.28 µM [inhibitor, partial curve]"
7,CCC(=O)Nc1nc(-c2ccccc2)nc(SC)c1C(C)=O,"inconclusive: 10.4 µM [inhibitor, single point]"
8,CC(=O)N1CCN(C(=O)c2ccc(NS(=O)(=O)c3ccc4c(c3)OCCO4)cc2)CC1,inactive
9,O=c1ccn(Cc2ccccc2)c2ccccc12,"inconclusive: 2.94 µM [inhibitor, partial curve, poor fit]"
10,CCOC(=O)c1c(NC(=O)C2COc3ccccc3O2)sc2c1CC(C)(C)NC2(C)C (stereo not drawn),"inconclusive: 18.5 µM [inhibitor, single point]"
11,CCOc1cc(C2C3=C(CC(C)(C)CC3=O)N(CCCOC)C3=C2C(=O)CC(C)(C)C3)ccc1OC,"inconclusive: 11.7 µM [inhibitor, partial curve, poor fit]"
12,COc1cc(OC)cc(C(=O)NCC2CCCN(C(=O)c3oc(C)cc3C)C2)c1 (stereo not drawn),"inconclusive: 16.5 µM [inhibitor, single point]"
13,CC(=NCc1ccco1)c1c(O)n(-c2ccccc2)c(=O)[nH]c1=O,"inconclusive: 3.29 µM [inhibitor, partial curve, poor fit]"
14,CC(C)C1OC2c3cccc4cccc(c34)C2N1c1ccccc1 (stereo not drawn),"inconclusive: 13.1 µM [inhibitor, partial curve, poor fit]"
15,CCN(CC(=O)NCc1ccc(Cl)cc1)C(=O)c1cc(S(=O)(=O)NCc2ccccc2)ccc1C,"inconclusive: 18.5 µM [inhibitor, single point]"
16,NC(=O)c1ccccc1NC(=O)c1ccccc1S(=O)(=O)c1ccccc1[N+](=O)[O-],"inconclusive: 9.28 µM [inhibitor, single point]"
17,COc1ccc(-c2sc(Nc3ccccc3)n[n+]2C)c(C)c1C,"inconclusive: 10.4 µM [inhibitor, partial curve, poor fit]"
18,CCC(CC)c1nnc(NC(=O)C2CC(=O)N(c3ccc4c(c3)OCCO4)C2)s1 (stereo not drawn),"inconclusive: 18.5 µM [inhibitor, single point]"
19,COCC1CCN(Cc2c(C(=O)N3CCN(C4CCCCC4)CC3)nc3ccccn23)C1 (stereo not drawn),"inconclusive: 18.5 µM [inhibitor, single point]"
20,O=c1cc(Cn2nnc(-c3ccc(Cl)cc3)n2)nc2sccn12,"inconclusive: 18.5 µM [inhibitor, single point]"
21,Cn1c(=O)[nH]c(=O)c2c1nc(N1CCN(CCO)CC1)n2Cc1ccccc1,"inconclusive: 10.4 µM [inhibitor, single point]"
22,O=C(NCc1ccncc1)NC1CCCCC1,"inconclusive: 18.5 µM [inhibitor, single point]"
23,CCC(C)C(=O)Nc1nc2c(s1)C(=O)CC(C)(C)C2 (stereo not drawn),"inconclusive: 18.5 µM [inhibitor, single point]"

row,Compound,Potency
1,C[C@@H](C(=O)NCc1ccccn1)[C@H]1C[C@]1(C)[C@H](NC(=O)OCc1ccccc1)c1ccccc1,"inconclusive: 10.4 µM [inhibitor, single point]"
2,CC1CCN(CCCCOc2ccccc2[N+](=O)[O-])CC1,"inconclusive: 11.7 µM [inhibitor, single point]"
3,COc1ccc(S(=O)(=O)N2CCCC2)cc1OC,"inconclusive: 18.5 µM [inhibitor, single point]"
4,Cc1nc2cc(C(=O)OCC(=O)NC(C)C(C)C)ccc2n1-c1ccccc1 (stereo not drawn),"inconclusive: 18.5 µM [inhibitor, single point]"
5,CC(C)(CC(=O)O)CC(=O)N1CCN(c2nc3cc(Cl)ccc3s2)CC1,inactive
6,N#C/C(=C\c1cccc([N+](=O)[O-])c1)C(=O)NCc1ccc(Cl)cc1,"inconclusive: 2.08 µM [inhibitor, full curve, poor fit]"
7,Cc1c(N(C)C)c(=O)n(-c2ccccc2)n1C,"inconclusive: 3.7 µM [inhibitor, partial curve, poor fit]"
8,Oc1c(Cl)cc(Cl)c(Cl)c1Cc1c(O)c(Cl)cc(Cl)c1Cl,active: 12 µM and active: 9.28 µM
9,C=CCn1c2ccccc2c(=O)c2cc(C#Cc3ccsc3)ccc21,active: 0.329 µM
10,Cc1ccc(NC(=O)CN(C)C(=O)C2COc3ccccc3O2)cc1 (stereo not drawn),"inconclusive: 18.5 µM [inhibitor, single point]"
11,O=c1[nH]c(C2CCN(S(=O)(=O)c3ccccc3F)CC2)nc2c1nnn2Cc1ccc2c(c1)OCCO2,"inconclusive: 3.29 µM [inhibitor, partial curve]"
12,O=C(COc1ccccc1Cl)N(Cc1cccs1)C1CCS(=O)(=O)C1 (stereo not drawn),inactive
13,Cc1onc(-c2ccccc2)c1C(=O)Nc1cccnc1,"inconclusive: 0.0415 µM [inhibitor, partial curve, poor fit]"
14,COCC(=O)OC/C(O)=C(\C#N)c1nc2ccccc2[nH]1,"inconclusive: 16.5 µM [inhibitor, partial curve, poor fit]"
15,O=C(NCc1ccc(F)cc1)c1c2c(nc3ccccc13)CCN(Cc1ccccc1)C2,inactive
16,COc1ccccc1NS(=O)(=O)c1cc(C(=O)N2CCCC2)ccc1F,"inconclusive: 18.5 µM [inhibitor, single point]"
17,CC(C)(C)C1CCC(=NNC(=O)c2ccco2)CC1 (stereo not drawn),"inconclusive: 16.5 µM [inhibitor, single point]"
18,O=C(C1CCC(=O)N(C2CCCC2)C1)N1CCN(Cc2cccc(F)c2)CC1 (stereo not drawn),"inconclusive: 13.1 µM [inhibitor, single point]"
19,COCCN(Cc1cccs1)S(=O)(=O)c1ccc(-c2ccc(=O)[nH]n2)s1,inactive
20,CCNC(=O)NS(=O)(=O)c1cnccc1Nc1cccc(Cl)c1,"inconclusive: 11.7 µM [inhibitor, partial curve, poor fit]"
21,CC1Sc2ccc(S(=O)(=O)CCC(=O)Nc3ccccc3Cl)cc2NC1=O (stereo not drawn),inactive
22,CCNc1nc(NCC)n2c(SCC(=O)Nc3ccc(C(F)(F)F)cc3[N+](=O)[O-])nnc2n1,"inconclusive: 10.4 µM [inhibitor, partial curve]"

# Look-ups from the entries so far:
# Cc1onc(-c2ccccc2)c1C(=O)Nc1cccnc1 | Potency: inconclusive: 0.0415 µM [inhibitor, partial curve, poor fit]
# N#C/C(=C\c1cccc([N+](=O)[O-])c1)C(=O)NCc1ccc(Cl)cc1 | Potency: inconclusive: 2.08 µM [inhibitor, full curve, poor fit]
# C[C@@H](C(=O)NCc1ccccn1)[C@H]1C[C@]1(C)[C@H](NC(=O)OCc1ccccc1)c1ccccc1 | Potency: inconclusive: 10.4 µM [inhibitor, single point]
# COCC(=O)OC/C(O)=C(\C#N)c1nc2ccccc2[nH]1 | Potency: inconclusive: 16.5 µM [inhibitor, partial curve, poor fit]
